# Cleaved PARP after 72 h of treatment

Values as published with doi:10.1371/journal.pone.0140310, rounded.

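Human melanoma cells were exposed to a pair of drugs for 72 h in 1,536-well plates and read by automated microscopy after fixing and staining. Each value is the cleaved-PARP-positive fraction of nuclei relative to DMSO-treated wells, in %, so that 100 equals the control and higher values mean more apoptosis. Every drug was used at one fixed concentration, the higher of two screened. No replicate spread is given; individual values may be noisy. Basal and induced levels differ widely between cell lines.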 Only some of the drugs and lines screened are listed, without regard to their results. A dash means that no value is listed here.

Drug key:
tipifarnib (50 nM): Cn1cncc1[C@@](N)(c1ccc(Cl)cc1)c1ccc2c(c1)c(-c1cccc(Cl)c1)cc(=O)n2C
BI-78D3 (1000 nM): O=c1[nH]nc(Sc2ncc([N+](=O)[O-])s2)n1-c1ccc2c(c1)OCCO2
bortezomib (5 nM): CC(C)C[C@H](NC(=O)[C@H](Cc1ccccc1)NC(=O)c1cnccn1)B(O)O
OSU-03012 (5000 nM): NCC(=O)Nc1ccc(-n2nc(C(F)(F)F)cc2-c2ccc3c(ccc4ccccc43)c2)cc1
LFM-A13 (10000 nM): C/C(O)=C(\C#N)C(=O)Nc1cc(Br)ccc1Br
sorafenib (2000 nM): CNC(=O)c1cc(Oc2ccc(NC(=O)Nc3ccc(Cl)c(C(F)(F)F)c3)cc2)ccn1
dovitinib (500 nM): CN1CCN(c2ccc3nc(-c4c(N)c5c(F)cccc5[nH]c4=O)[nH]c3c2)CC1
SNS-032 (50 nM): CC(C)(C)c1cnc(CSc2cnc(NC(=O)C3CCNCC3)s2)o1
docetaxel (0.5 nM): CC(=O)O[C@@]12CO[C@@H]1C[C@H](O)[C@@]1(C)C(=O)[C@H](O)C3=C(C)[C@@H](OC(=O)[C@H](O)[C@@H](NC(=O)OC(C)(C)C)c4ccccc4)C[C@@](O)([C@@H](OC(=O)c4ccccc4)[C@H]21)C3(C)C
KU-0063794 (100 nM): COc1ccc(-c2ccc3c(N4CCOCC4)nc(N4C[C@@H](C)O[C@@H](C)C4)nc3n2)cc1CO

Pair	UACC-257	RVH-421	WM115	SK-MEL-5	WM1745	UACC-62	SK-MEL-2	WM3619	A2058	C32	501mel	COLO 800
docetaxel and dovitinib	189	212	2370	2710	245	446	2400	181	1600	610	-	211
BI-78D3 and SNS-032	138	104	136	175	70.8	200	191	137	95.7	179	-	178
KU-0063794 and sorafenib	34.2	23.3	271	124	-	101	145	83.9	111	93.1	96.7	148
tipifarnib and SNS-032	40.8	76.8	217	272	148	164	440	250	233	122	-	173
KU-0063794 and tipifarnib	48.2	210	152	135	106	205	129	135	256	213	733	210
BI-78D3 and sorafenib	77.7	104	78.5	108	121	132	38.8	122	138	35.2	-	139
dovitinib and SNS-032	231	101	83.5	176	113	138	222	116	336	118	-	231
KU-0063794 and SNS-032	65.1	51.1	161	78.1	120	303	330	519	137	119	101	203
dovitinib and BI-78D3	43.0	85.0	332	222	174	190	338	143	1130	58.0	-	248
bortezomib and OSU-03012	105	973	882	720	433	218	651	1430	3310	3170	-	518
sorafenib and OSU-03012	91.3	54.8	66.9	263	96.5	116	330	196	40.6	140	-	84.3
KU-0063794 and LFM-A13	43.9	80.0	71.2	154	128	454	229	131	154	94.0	124	100
BI-78D3 and bortezomib	40.9	389	6010	2810	455	372	305	3860	2390	935	-	85.8
SNS-032 and docetaxel	249	218	489	777	195	178	894	202	1180	275	-	483
tipifarnib and BI-78D3	137	88.1	82.7	134	60.9	74.7	164	80.0	73.9	78.7	-	148
SNS-032 and LFM-A13	60.7	125	138	314	118	238	261	218	108	111	149	175
bortezomib and KU-0063794	27.5	815	299	1940	-	165	96.9	5550	465	201	594	108
LFM-A13 and BI-78D3	155	39.6	63.0	49.6	-	248	196	93.6	119	176	204	121
docetaxel and LFM-A13	147	236	384	901	-	388	694	126	3160	96.8	265	401
OSU-03012 and tipifarnib	81.4	113	73.1	218	91.7	202	557	5040	83.5	174	-	140
OSU-03012 and SNS-032	229	213	64.8	319	218	235	503	116	43.6	134	-	154
KU-0063794 and BI-78D3	167	234	113	189	-	183	106	99.4	69.7	79.7	31.6	142
sorafenib and dovitinib	128	122	285	308	200	85.8	153	134	874	74.5	-	115
sorafenib and docetaxel	148	188	1620	3350	382	330	1450	153	2360	655	-	144

The first 3 entries again:

Pair	UACC-257	RVH-421	WM115	SK-MEL-5	WM1745	UACC-62	SK-MEL-2	WM3619	A2058	C32	501mel	COLO 800
docetaxel and dovitinib	189	212	2370	2710	245	446	2400	181	1600	610	-	211
BI-78D3 and SNS-032	138	104	136	175	70.8	200	191	137	95.7	179	-	178
KU-0063794 and sorafenib	34.2	23.3	271	124	-	101	145	83.9	111	93.1	96.7	148